Assay results: patent US20090311716A1, “METHODS TO TREAT OR PREVENT HORMONE-RESISTANT PROSTATE CANCER USING siRNA [sequence] FOR PROTOCADHERIN-PC, OR OTHER INHIBITORS OF PROTOCADHERIN-PC EXPRESSION OR ACTIVITY” (THE TRUSTEES OF COLUMBIA UNIVERSITY IN THE CITY OF NEW YORK, priority 2005, published 2009)
At least one compound was matched to its structure with a doubt left.

Legend:
Format in all cases: cell-based, human
MDM2 = assay: Western blot of phosphorylated MDM2 in Wnt-activated LNCaP cells; details: β-catenin transfected or 7 days androgen-free LNCaP
From the text: (§1) FIGS. 44A-44B. Suppression of MDM2 expression or direct Akt activity relieves Wnt-mediated suppression of hAR protein expression. FIG. 44A. […] (middle). Actin control (bottom). FIG. 44B. […] Actin control (bottom).
FIG. 45. Proteasome inhibitors block the suppression of MDM2 phosphorylation and suppress degradation of PP2A B subunit protein in Wnt-activated LNCaP cells. […] There was no change in the PP2A catalytic C subunit levels in Wnt-activated or proteasome-inhibitor treated cells (bottom).
Cell lines, plasmids and siRNAs. LNCaP, CWR22rv-1, PC-3 and DU145 cells were obtained from ATCC and were passaged in normal (for LNCaP, RPMI 1640 with 10% fetal calf serum and supplements) or androgen-free maintained as previously described (Yang et al., 2005). A defective adenovirus that expresses Wnt-1 protein (Ad-Wnt-1) and control, Lac Z expressing adenovirus (Ad-lac Z) were previously described (Young et al., 1998). These viruses were applied at 20 particles/cell in low serum (2%) medium for 1 h. […]
(§2) Preparation of cell extracts and western blots. Cells were harvested and protein extracts prepared, quantified and used to prepare Western blots as previously described (Example 1; Yang et al., 2005). […] Recombinant Wnt-1 protein (HA-tagged) was detected with anti-HA antibody (Clontech Inc., Mountain View, Calif.). Antibody binding to the Western blot was detected as previously described (Yang et al., 2005). […]

hAR protein = assay: Western blot of hAR protein in Wnt-activated LNCaP cells; details: for Wnt-mediated suppression of hAR protein expression: β-catenin or PCDH-PC transfected or 7 days androgen-free LNCaP
From the text: FIGS. 43A-43C. […] FIG. 43A. […] FIG. 43B.
as §1
Cell lines, plasmids and siRNAs. LNCaP, CWR22rv-1, PC-3 and DU145 cells were obtained from ATCC and were passaged in normal (for LNCaP, RPMI 1640 with 10% fetal calf serum and supplements) or androgen-free maintained as previously described (Yang et al., 2005). A defective adenovirus that expresses Wnt-1 protein (Ad-Wnt-1) and control, Lac Z expressing adenovirus (Ad-lac Z) were previously described (Young et al., 1998). These viruses were applied at 20 particles/cell in low serum (2%) medium for 1 h. Expression plasmids containing mutated (stabilized) human β-catenin (Tetsu and McCormick, 1999), dominant negative TCF-4 (Chen et al., 2001) or PCDH-PC cDNA were transfected into cells as previously described (Example 1; Yang et al., 2005). Small interfering (si) RNAs targeting β-catenin or lamin were purchased from Dharmacon Inc. siRNA targeting human MDM2 was purchased from Qiagen Inc (Valencia, Calif.). siRNAs were transfected into cells. Proteasome inhibitors MG132 and lactacystin were purchased from Sigma Chemical Co. (St Louis, Mo.) and were used at 5 (MG 132) or 10 (lactacystin) […] for 12 h prior to cell harvesting. PI3-kinase inhibitor LY294002 (Sigma Chemical Co.) and Akt Inhibitor IV (compound 5233705, EMD Biosciences Inc., San Diego, Calif.) (Kau et al., 2003) were used at […] concentrations, respectively, for 12 h prior to harvesting cells.
as §2

Akt = Akt phosphorylation in Wnt-activated LNCaP cells

SMILES	Wnt-mediated upregulation of MDM2 phosphorylation (MDM2)	Wnt-mediated upregulation of MDM2 phosphorylation (MDM2; listed as LY2294002)	Wnt-mediated suppression of hAR protein expression (hAR protein)	Wnt-mediated suppression of hAR protein expression (hAR protein; listed as LY2294002)	Akt phosphorylation subsequent to activation of Wnt signaling (Akt)	hAR protein level relative to control(-transfected) cells (hAR protein; β-catenin transfected LNCaP, MG132 5 mM, lactacystin 10 mM, compound 5233705 50 mM for 12 h)
O=c1cc(N2CCOCC2)oc2c(-c3ccccc3)cccc12 [LY294002]	but not by	not able to suppress	but not by	nor did this affect the downregulation of hAR protein expression	inability	–
CC[n+]1c(/C=C/N(C)c2ccccc2)n(-c2ccccc2)c2ccc(-c3nc4ccccc4s3)cc21.[I-] [compound 5233705]	–	–	–	–	–	eight to 12
